Measured data: PubChem BioAssay AID1224830 (NIAID, 2016)
Test: 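Regulators of TLR4 signalling towards TNF-alpha in macrophage-like cells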 (primary screen). Cell system: human THP-1 monocytic leukaemia cells, TNF dual-luciferase reporter clone, PMA-differentiated to macrophage-like cells. Knock-down reagent: siRNA pool against human genes, 50 nM. Timing: LPS for 4 h, given about 3 days after siRNA transfection. Conditions: bacterial LPS (TLR4 ligand), 10 ng/ml. Read-out: 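TNF firefly reporter luminescence divided by renilla, normalised to the plate median, then turned into a robust z-score for each replicate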. Reading the numbers: TNF reporter robust z-score: higher = stronger TNF reporter response to LPS. Call rule: 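a well is active when its z-score exceeds 2.8 or falls below -1.5; control wells carry no call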.
The deposit covers about 18,000 reagents; this is a random part of them. In the full data, about 2,900 (16%) are marked active. 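Calls are made per well; low scores hint the gene aids the LPS response, high scores that it dampens it.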 Repeated entries: four replicate wells of each siRNA pool.

With knock-down of CCNE1, the record shows TNF reporter robust z-score -1.42; inactive.
Knock-down of CCNE1 came out at: TNF reporter robust z-score -0.31; inactive.
With knock-down of CCNE1, the record shows TNF reporter robust z-score -0.55; inactive.
Depletion of CCNE1 came out at: TNF reporter robust z-score -1.16; inactive.
Silencing of FAAH gave: TNF reporter robust z-score 1.78; inactive.
FAAH showed TNF reporter robust z-score 2.54; inactive.
After knock-down of FAAH, the screen gave TNF reporter robust z-score 1.59; inactive.
FAAH showed TNF reporter robust z-score 2.99; active.
With knock-down of PMS2, the record shows TNF reporter robust z-score -1.12; inactive.
After knock-down of PMS2, the screen gave TNF reporter robust z-score -0.2; inactive.
Knock-down of PMS2 resulted in: TNF reporter robust z-score 0.08; inactive.
With knock-down of PMS2 the results were TNF reporter robust z-score 0.18; inactive.

Already shown: entries from further up.
CCNE1 — TNF reporter robust z-score = -0.55; outcome = inactive
CCNE1 — TNF reporter robust z-score = -1.16; outcome = inactive
FAAH — TNF reporter robust z-score = 1.78; outcome = inactive

The results go on:
Knock-down of SOS2 resulted in: TNF reporter robust z-score -0.01; inactive.
SOS2 showed TNF reporter robust z-score 0.51; inactive.
SOS2 gave TNF reporter robust z-score -0.81; inactive.
Silencing of SOS2 resulted in: TNF reporter robust z-score 0.99; inactive.
After knock-down of GDNF, the record shows TNF reporter robust z-score 0.64; inactive.
GDNF showed TNF reporter robust z-score 0.76; inactive.
GDNF showed TNF reporter robust z-score 2.92; active.
Depletion of GDNF came out at: TNF reporter robust z-score 0.91; inactive.
